Results on 2 substances are retold here after publication PMC10177047.

By UniProt entry, the sequences of proteins in these tests, tags left out.
UniProt O14497: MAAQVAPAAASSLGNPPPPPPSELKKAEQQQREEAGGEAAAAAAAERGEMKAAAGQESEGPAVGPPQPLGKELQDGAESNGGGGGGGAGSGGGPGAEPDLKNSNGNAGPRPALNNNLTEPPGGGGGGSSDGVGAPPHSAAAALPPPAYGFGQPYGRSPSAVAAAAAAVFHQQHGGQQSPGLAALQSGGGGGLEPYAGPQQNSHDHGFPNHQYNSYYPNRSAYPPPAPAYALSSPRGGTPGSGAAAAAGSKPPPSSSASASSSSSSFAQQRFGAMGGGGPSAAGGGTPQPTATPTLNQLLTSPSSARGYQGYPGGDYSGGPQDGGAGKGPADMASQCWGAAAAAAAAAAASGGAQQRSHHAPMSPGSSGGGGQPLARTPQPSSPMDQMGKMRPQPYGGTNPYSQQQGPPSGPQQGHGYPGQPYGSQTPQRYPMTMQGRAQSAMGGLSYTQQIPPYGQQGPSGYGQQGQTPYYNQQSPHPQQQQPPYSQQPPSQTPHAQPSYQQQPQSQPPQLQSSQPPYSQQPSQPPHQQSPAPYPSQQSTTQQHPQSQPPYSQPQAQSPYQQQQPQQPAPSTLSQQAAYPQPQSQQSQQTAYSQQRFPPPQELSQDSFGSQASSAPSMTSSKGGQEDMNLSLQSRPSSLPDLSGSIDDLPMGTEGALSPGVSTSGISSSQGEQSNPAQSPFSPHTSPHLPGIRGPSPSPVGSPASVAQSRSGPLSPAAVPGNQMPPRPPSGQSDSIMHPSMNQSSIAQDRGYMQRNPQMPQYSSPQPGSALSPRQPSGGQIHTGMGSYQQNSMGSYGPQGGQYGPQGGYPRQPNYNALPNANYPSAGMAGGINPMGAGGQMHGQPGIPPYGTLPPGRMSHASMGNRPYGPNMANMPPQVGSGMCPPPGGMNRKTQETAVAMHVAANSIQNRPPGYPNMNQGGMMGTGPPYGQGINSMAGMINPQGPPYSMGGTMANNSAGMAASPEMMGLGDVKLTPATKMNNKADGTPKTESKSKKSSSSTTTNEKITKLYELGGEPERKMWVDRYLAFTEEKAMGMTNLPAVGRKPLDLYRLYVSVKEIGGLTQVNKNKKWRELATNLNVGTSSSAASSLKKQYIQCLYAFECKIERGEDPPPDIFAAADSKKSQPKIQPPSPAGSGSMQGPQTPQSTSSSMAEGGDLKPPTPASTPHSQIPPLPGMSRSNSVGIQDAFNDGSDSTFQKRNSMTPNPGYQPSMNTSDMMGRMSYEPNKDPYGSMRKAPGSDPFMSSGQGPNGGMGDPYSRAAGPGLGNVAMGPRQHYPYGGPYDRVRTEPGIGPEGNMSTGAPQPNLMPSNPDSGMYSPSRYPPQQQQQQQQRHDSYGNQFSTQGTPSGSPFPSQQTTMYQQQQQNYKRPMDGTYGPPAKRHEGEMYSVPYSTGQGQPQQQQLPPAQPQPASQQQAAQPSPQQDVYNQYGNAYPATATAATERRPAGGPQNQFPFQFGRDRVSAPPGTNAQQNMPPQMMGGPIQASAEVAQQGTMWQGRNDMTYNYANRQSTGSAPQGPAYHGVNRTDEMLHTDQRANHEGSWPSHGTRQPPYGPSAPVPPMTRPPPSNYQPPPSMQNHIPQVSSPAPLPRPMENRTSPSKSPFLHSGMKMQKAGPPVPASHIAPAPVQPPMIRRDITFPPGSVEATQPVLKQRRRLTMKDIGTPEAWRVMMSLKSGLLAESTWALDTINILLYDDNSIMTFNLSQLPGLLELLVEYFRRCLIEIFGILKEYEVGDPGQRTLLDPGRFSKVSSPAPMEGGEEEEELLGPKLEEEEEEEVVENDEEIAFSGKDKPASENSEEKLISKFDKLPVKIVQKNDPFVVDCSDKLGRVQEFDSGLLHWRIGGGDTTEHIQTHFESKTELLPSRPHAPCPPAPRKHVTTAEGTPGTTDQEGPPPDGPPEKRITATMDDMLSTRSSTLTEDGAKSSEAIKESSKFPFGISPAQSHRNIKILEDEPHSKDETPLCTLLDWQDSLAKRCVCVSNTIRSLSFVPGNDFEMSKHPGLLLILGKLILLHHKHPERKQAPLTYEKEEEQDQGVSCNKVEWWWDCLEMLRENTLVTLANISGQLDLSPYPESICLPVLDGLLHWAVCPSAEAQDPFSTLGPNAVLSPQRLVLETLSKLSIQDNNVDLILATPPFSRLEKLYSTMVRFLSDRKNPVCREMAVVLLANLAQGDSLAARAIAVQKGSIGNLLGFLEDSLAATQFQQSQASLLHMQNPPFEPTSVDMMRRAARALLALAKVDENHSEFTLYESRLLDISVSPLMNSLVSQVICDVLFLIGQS
UniProt P51532: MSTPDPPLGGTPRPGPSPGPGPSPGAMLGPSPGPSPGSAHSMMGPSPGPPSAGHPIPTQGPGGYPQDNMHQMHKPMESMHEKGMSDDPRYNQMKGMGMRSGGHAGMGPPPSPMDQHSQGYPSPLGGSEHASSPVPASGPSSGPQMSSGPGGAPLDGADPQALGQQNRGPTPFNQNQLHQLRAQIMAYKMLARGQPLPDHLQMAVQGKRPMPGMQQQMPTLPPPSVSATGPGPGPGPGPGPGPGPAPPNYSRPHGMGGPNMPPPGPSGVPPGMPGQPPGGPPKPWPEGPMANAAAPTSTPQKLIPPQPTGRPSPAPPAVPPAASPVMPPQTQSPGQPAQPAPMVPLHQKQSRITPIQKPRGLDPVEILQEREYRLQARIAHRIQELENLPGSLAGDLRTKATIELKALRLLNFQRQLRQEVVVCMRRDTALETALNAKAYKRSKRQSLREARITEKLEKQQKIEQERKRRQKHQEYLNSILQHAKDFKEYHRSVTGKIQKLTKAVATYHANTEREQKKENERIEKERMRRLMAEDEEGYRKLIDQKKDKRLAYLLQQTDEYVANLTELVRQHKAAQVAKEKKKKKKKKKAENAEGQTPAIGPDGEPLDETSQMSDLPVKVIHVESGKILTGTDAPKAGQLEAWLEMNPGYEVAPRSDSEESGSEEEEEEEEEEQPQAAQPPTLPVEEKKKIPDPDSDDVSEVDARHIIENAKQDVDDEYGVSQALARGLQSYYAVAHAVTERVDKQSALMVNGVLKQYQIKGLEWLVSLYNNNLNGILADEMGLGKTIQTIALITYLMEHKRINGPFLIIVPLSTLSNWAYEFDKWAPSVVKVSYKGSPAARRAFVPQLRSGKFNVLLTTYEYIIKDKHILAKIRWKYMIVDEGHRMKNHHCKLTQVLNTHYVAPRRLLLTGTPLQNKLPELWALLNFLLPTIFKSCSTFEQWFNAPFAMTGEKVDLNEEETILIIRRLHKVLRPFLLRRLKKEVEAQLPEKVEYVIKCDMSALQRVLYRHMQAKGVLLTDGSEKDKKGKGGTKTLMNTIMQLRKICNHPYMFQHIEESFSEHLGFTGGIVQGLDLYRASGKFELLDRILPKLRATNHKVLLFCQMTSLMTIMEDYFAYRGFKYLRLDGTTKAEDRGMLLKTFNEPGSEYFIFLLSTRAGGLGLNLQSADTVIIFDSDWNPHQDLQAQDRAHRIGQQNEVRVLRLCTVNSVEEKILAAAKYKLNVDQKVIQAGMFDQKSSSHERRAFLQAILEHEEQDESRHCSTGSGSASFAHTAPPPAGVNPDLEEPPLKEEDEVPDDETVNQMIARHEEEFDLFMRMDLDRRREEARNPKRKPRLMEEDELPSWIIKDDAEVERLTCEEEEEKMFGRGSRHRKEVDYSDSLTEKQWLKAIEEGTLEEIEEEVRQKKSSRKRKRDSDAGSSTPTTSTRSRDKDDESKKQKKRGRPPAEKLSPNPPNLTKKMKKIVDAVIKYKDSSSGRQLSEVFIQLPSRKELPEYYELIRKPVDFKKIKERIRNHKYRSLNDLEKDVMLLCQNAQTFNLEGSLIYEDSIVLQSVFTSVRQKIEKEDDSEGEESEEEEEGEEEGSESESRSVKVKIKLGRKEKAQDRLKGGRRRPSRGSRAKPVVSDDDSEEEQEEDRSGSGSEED
UniProt P46937: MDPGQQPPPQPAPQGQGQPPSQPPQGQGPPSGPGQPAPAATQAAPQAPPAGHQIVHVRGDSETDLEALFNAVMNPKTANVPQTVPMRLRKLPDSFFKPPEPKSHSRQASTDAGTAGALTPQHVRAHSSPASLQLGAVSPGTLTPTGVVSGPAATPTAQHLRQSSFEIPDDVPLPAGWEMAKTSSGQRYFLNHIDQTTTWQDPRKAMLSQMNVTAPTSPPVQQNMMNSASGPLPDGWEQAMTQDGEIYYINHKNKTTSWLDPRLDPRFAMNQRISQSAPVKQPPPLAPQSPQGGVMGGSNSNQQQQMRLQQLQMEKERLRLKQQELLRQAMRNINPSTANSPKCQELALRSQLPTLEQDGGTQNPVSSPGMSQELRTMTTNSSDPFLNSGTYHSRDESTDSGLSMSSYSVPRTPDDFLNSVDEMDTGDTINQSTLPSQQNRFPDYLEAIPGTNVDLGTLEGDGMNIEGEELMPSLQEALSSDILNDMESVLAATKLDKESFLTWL

These are yes or no findings as the source states them, for the method shown. Binding seen in cells or lysates may run through a third protein. Some results given as binding are weak or reduced against the parent protein; the word gives no strength.

In the assay the target is ARID1A (human (endogenous in MDA-MB-231)) (UniProt O14497). Kind of assay: co-IP; lysates (RIPA buffer) of MDA-MB-231 (and BT-549) cells; anti-ARID1A, anti-YAP, anti-BRG1 or anti-TEAD antibody at 4 °C overnight, protein A/G beads, Western blot; control, ARID1A knock-out, ARID1A-overexpressing and siBRG1 cells.

BRG1 (from UniProt P51532 1-1647): the binding result is “binds”.
With YAP (from UniProt P46937 1-504) the entry was “binds”.
